# Measured values reported in PMC7377239, “Cardiovascular Effects of Polychlorinated Biphenyls and Their Major Metabolites” (Environmental Health Perspectives, 2020).
# System: iPSC-CMs, iPSC-ECs and HUVECs phenotypes
# Experiment: ToxPi 2.0 integration of POD values and physicochemical descriptors
# Set-up: species or system human
# Details: 90min
# Procedure, shortened: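 Phenotypic readouts in iPSC-cardiomyocytes, iPSC-endothelial cells and HUVECs were normalised to 0.5% DMSO vehicle and fitted to a four-parameter logistic model. POD set at one SD cutoff of vehicle means, with 100 μM assigned when no response. PODs and physicochemical descriptors combined in ToxPi 2.0 scores.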
Structure (SMILES),cm.amp.avg.90min ToxPi,cm.amp.cv.90min ToxPi,cm.bpm.90min ToxPi,cm.cam.90min ToxPi,cm.decay.rise.90min ToxPi,cm.mii.90min ToxPi,cm.mito.90min ToxPi,cm.spacing.cv.90min ToxPi,cm.tc.90min ToxPi
"Clc1ccc(Cl)c(-c2c(Cl)ccc(Cl)c2Cl)c1Cl [(+)-PCB 136, 2,2′,3,3′,6,6′-hexachlorobiphenyl]",0.64,0.24,0.80,0.48,0.19,0.58,0.47,0.08,0.41
"Clc1ccc(Cl)c(-c2c(Cl)ccc(Cl)c2Cl)c1Cl [(-)-PCB 136, 2,2′,3,3′,6,6′-hexachlorobiphenyl]",0.76,0.23,0.26,0.91,0.56,0.31,0.91,0.08,0.92
Clc1ccc(Cl)c(-c2cc(Cl)ccc2Cl)c1 [PCB52],0.56,0.17,0.32,0.42,0.18,0.84,0.38,0.16,0.39
Clc1ccc(Cl)c(-c2c(Cl)ccc(Cl)c2Cl)c1 [PCB95],0.33,0.67,0.74,0.41,0.16,0.00,0.38,0.23,0.39
Clc1ccc(-c2cc(Cl)c(Cl)c(Cl)c2)cc1Cl [PCB126],0.30,0.00,0.85,0.00,1.00,0.00,0.00,0.00,0.00

# Same assay, conditions: 24hrs
Structure (SMILES),cm.amp.avg.24hrs ToxPi,cm.amp.cv.24hrs ToxPi,cm.bpm.24hrs ToxPi,cm.cam.24hrs ToxPi,cm.decay.rise.24hrs ToxPi,cm.mii.24hrs ToxPi,cm.mito.24hrs ToxPi,cm.spacing.cv.24hrs ToxPi,cm.tc.24hrs ToxPi
"Clc1ccc(Cl)c(-c2c(Cl)ccc(Cl)c2Cl)c1Cl [(+)-PCB 136, 2,2′,3,3′,6,6′-hexachlorobiphenyl]",0.56,0.54,0.72,0.58,0.92,0.18,0.85,0.75,1.00
"Clc1ccc(Cl)c(-c2c(Cl)ccc(Cl)c2Cl)c1Cl [(-)-PCB 136, 2,2′,3,3′,6,6′-hexachlorobiphenyl]",0.72,1.00,0.38,0.28,0.90,0.34,0.45,0.20,0.47
Clc1ccc(Cl)c(-c2cc(Cl)ccc2Cl)c1 [PCB52],0.35,0.50,0.35,0.35,0.29,0.28,0.56,0.23,0.58
Clc1ccc(Cl)c(-c2c(Cl)ccc(Cl)c2Cl)c1 [PCB95],0.00,0.21,1.00,0.32,0.23,0.40,0.52,0.19,0.56
Clc1ccc(-c2cc(Cl)c(Cl)c(Cl)c2)cc1Cl [PCB126],0.39,0.06,0.68,0.36,1.00,0.00,0.56,0.34,0.63

# Same assay, conditions: Biological Activity ToxPi; POD values of iPSC-CM, iPSC-EC and HUVEC phenotypes integrated
row,Structure (SMILES),ToxPi_Score_Bioactivity
1,"Clc1ccc(Cl)c(-c2c(Cl)ccc(Cl)c2Cl)c1Cl [(+)-PCB 136, 2,2′,3,3′,6,6′-hexachlorobiphenyl]",0.6038
2,"Clc1ccc(Cl)c(-c2c(Cl)ccc(Cl)c2Cl)c1Cl [(-)-PCB 136, 2,2′,3,3′,6,6′-hexachlorobiphenyl]",0.5804

# Same assay, conditions: Chemical-Biological Integration ToxPi; in vitro data plus physicochemical descriptors
row,Structure (SMILES),ToxPi_Score_ChemBiol
1,"Clc1ccc(Cl)c(-c2c(Cl)ccc(Cl)c2Cl)c1Cl [(+)-PCB 136, 2,2′,3,3′,6,6′-hexachlorobiphenyl]",0.7665
2,"Clc1ccc(Cl)c(-c2c(Cl)ccc(Cl)c2Cl)c1Cl [(-)-PCB 136, 2,2′,3,3′,6,6′-hexachlorobiphenyl]",0.7521

# Same assay, conditions: HUVECs tube formation, 18 hr; scaled score from POD
Structure (SMILES),huvec.mtl.18hr ToxPi,huvec.tlps.18hr ToxPi,huvec.tta.18hr ToxPi,huvec.ttl.18hr ToxPi
"Clc1ccc(Cl)c(-c2c(Cl)ccc(Cl)c2Cl)c1Cl [(+)-PCB 136, 2,2′,3,3′,6,6′-hexachlorobiphenyl]",0.45,0.00,0.00,0.00
"Clc1ccc(Cl)c(-c2c(Cl)ccc(Cl)c2Cl)c1Cl [(-)-PCB 136, 2,2′,3,3′,6,6′-hexachlorobiphenyl]",0.34,0.30,0.0137,0.00
Clc1ccc(Cl)c(-c2c(Cl)ccc(Cl)c2Cl)c1 [PCB95],0.56,0.00,0.00,0.00
Clc1ccc(-c2cc(Cl)c(Cl)c(Cl)c2)cc1Cl [PCB126],0.00,0.00,0.00,0.00

# Same assay, conditions: HUVECs, 18 hr; scaled from POD
Structure (SMILES),huvec.mtl.18hr ToxPi,huvec.tlps.18hr ToxPi,huvec.tta.18hr ToxPi,huvec.ttl.18hr ToxPi
Clc1ccc(-c2ccccc2)cc1 [PCB3],0.31,0.00,0.99,0.75
Clc1cccc(-c2cccc(Cl)c2)c1 [PCB11],0.00,0.17,0.00,0.00
Clc1ccc(Cl)c(-c2cc(Cl)ccc2Cl)c1 [PCB52],0.00,0.00,0.00,0.00

# Same assay, conditions: HUVECs, 24 hr; scaled from POD
Structure (SMILES),huvec.cyto.24hr ToxPi,huvec.mito.24hr ToxPi,huvec.mitoint.24hr ToxPi,huvec.nma.24hr ToxPi
Clc1ccc(-c2ccccc2)cc1 [PCB3],0.00,0.00,0.00,0.00
Clc1cccc(-c2cccc(Cl)c2)c1 [PCB11],0.23,0.28,0.51,0.30
Clc1ccc(Cl)c(-c2cc(Cl)ccc2Cl)c1 [PCB52],0.52,0.61,0.56,0.38

# Same assay, conditions: HUVECs, 24 hr; scaled score from POD
Structure (SMILES),huvec.cyto.24hr ToxPi,huvec.mito.24hr ToxPi,huvec.mitoint.24hr ToxPi,huvec.nma.24hr ToxPi
"Clc1ccc(Cl)c(-c2c(Cl)ccc(Cl)c2Cl)c1Cl [(+)-PCB 136, 2,2′,3,3′,6,6′-hexachlorobiphenyl]",0.71,0.67,1.00,0.51
"Clc1ccc(Cl)c(-c2c(Cl)ccc(Cl)c2Cl)c1Cl [(-)-PCB 136, 2,2′,3,3′,6,6′-hexachlorobiphenyl]",0.61,0.55,0.95,0.50
Clc1ccc(Cl)c(-c2c(Cl)ccc(Cl)c2Cl)c1 [PCB95],0.95,1.00,0.52,0.50
Clc1ccc(-c2cc(Cl)c(Cl)c(Cl)c2)cc1Cl [PCB126],0.30,0.00,0.00,0.00

# Same assay, conditions: HUVECs, 24 hrs; scaled from POD
row,Structure (SMILES),huvec.tc.24hrs ToxPi
1,Clc1ccc(-c2ccccc2)cc1 [PCB3],0.00
2,Clc1cccc(-c2cccc(Cl)c2)c1 [PCB11],0.23
3,Clc1ccc(Cl)c(-c2cc(Cl)ccc2Cl)c1 [PCB52],0.52

# Same assay, conditions: HUVECs, 24 hrs; scaled score from POD
row,Structure (SMILES),huvec.tc.24hrs ToxPi
1,"Clc1ccc(Cl)c(-c2c(Cl)ccc(Cl)c2Cl)c1Cl [(+)-PCB 136, 2,2′,3,3′,6,6′-hexachlorobiphenyl]",0.71
2,"Clc1ccc(Cl)c(-c2c(Cl)ccc(Cl)c2Cl)c1Cl [(-)-PCB 136, 2,2′,3,3′,6,6′-hexachlorobiphenyl]",0.61
3,Clc1ccc(Cl)c(-c2c(Cl)ccc(Cl)c2Cl)c1 [PCB95],0.95
4,Clc1ccc(-c2cc(Cl)c(Cl)c(Cl)c2)cc1Cl [PCB126],0.30

# Same assay, conditions: iPSC-CM
Structure (SMILES),cm.amp.avg.24hrs ToxPi,cm.amp.avg.90min ToxPi,cm.amp.cv.24hrs ToxPi,cm.amp.cv.90min ToxPi,cm.bpm.24hrs ToxPi,cm.bpm.90min ToxPi,cm.cam.24hrs ToxPi,cm.cam.90min ToxPi,cm.decay.rise.24hrs ToxPi,cm.decay.rise.90min ToxPi
Clc1ccc(-c2ccccc2)cc1 [PCB3],0.05,0.31,0.21,0.68,0.19,0.38,0.35,0.57,0.32,0.00
Clc1cccc(-c2cccc(Cl)c2)c1 [PCB11],0.07,0.64,0.59,0.37,0.15,0.15,0.14,0.69,0.25,0.68

# Same assay, conditions: iPSC-CM
Structure (SMILES),cm.mii.24hrs ToxPi,cm.mii.90min ToxPi,cm.mito.24hrs ToxPi,cm.mito.90min ToxPi,cm.spacing.cv.24hrs ToxPi,cm.spacing.cv.90min ToxPi,cm.tc.24hrs ToxPi,cm.tc.90min ToxPi
Clc1ccc(-c2ccccc2)cc1 [PCB3],0.59,1.00,0.58,0.63,0.17,1.00,0.61,0.66
Clc1cccc(-c2cccc(Cl)c2)c1 [PCB11],0.62,0.78,0.24,0.79,0.37,0.07,0.24,0.73

# Same assay, conditions: iPSC-EC tube formation, 18 hr; scaled from POD
Structure (SMILES),endo.mtl.18hr ToxPi,endo.tlps.18hr ToxPi,endo.tta.18hr ToxPi,endo.ttl.18hr ToxPi
Clc1ccc(-c2ccccc2)cc1 [PCB3],0.00,0.00,0.00,0.00
Clc1cccc(-c2cccc(Cl)c2)c1 [PCB11],0.00,0.00,0.00,0.00
Clc1ccc(Cl)c(-c2cc(Cl)ccc2Cl)c1 [PCB52],0.0237,0.00,0.00,0.00

# Same assay, conditions: iPSC-EC, 18 h; scaled POD score
Structure (SMILES),endo.mtl.18hr ToxPi,endo.tlps.18hr ToxPi,endo.tta.18hr ToxPi,endo.ttl.18hr ToxPi
"Clc1ccc(Cl)c(-c2c(Cl)ccc(Cl)c2Cl)c1Cl [(+)-PCB 136, 2,2′,3,3′,6,6′-hexachlorobiphenyl]",0.0475,0.45,0.86,0.85
"Clc1ccc(Cl)c(-c2c(Cl)ccc(Cl)c2Cl)c1Cl [(-)-PCB 136, 2,2′,3,3′,6,6′-hexachlorobiphenyl]",0.07,0.09,0.61,0.63
Clc1ccc(Cl)c(-c2c(Cl)ccc(Cl)c2Cl)c1 [PCB95],0.0754,0.10,0.0656,0.054
Clc1ccc(-c2cc(Cl)c(Cl)c(Cl)c2)cc1Cl [PCB126],0.13,0.49,0.12,0.09

# Same assay, conditions: iPSC-EC, 24 h; scaled POD score
Structure (SMILES),endo.cyto.24hr ToxPi,endo.mito.24hr ToxPi,endo.mitoint.24hr ToxPi,endo.nma.24hr ToxPi,endo.tc.24hrs ToxPi
"Clc1ccc(Cl)c(-c2c(Cl)ccc(Cl)c2Cl)c1Cl [(+)-PCB 136, 2,2′,3,3′,6,6′-hexachlorobiphenyl]",0.17,0.17,0.29,0.00,0.17
"Clc1ccc(Cl)c(-c2c(Cl)ccc(Cl)c2Cl)c1Cl [(-)-PCB 136, 2,2′,3,3′,6,6′-hexachlorobiphenyl]",0.37,0.37,0.47,0.00,0.38
Clc1ccc(Cl)c(-c2c(Cl)ccc(Cl)c2Cl)c1 [PCB95],0.00,0.00,0.00,0.00,0.00
Clc1ccc(-c2cc(Cl)c(Cl)c(Cl)c2)cc1Cl [PCB126],1.00,1.00,0.31,0.00,1.00

# Same assay, conditions: iPSC-EC, 24 hr; scaled from POD
Structure (SMILES),endo.cyto.24hr ToxPi,endo.mito.24hr ToxPi,endo.mitoint.24hr ToxPi,endo.nma.24hr ToxPi,endo.tc.24hrs ToxPi
Clc1ccc(-c2ccccc2)cc1 [PCB3],0.00,0.00,0.00,0.00,0.00
Clc1cccc(-c2cccc(Cl)c2)c1 [PCB11],0.00,0.00,0.00,0.00,0.00
Clc1ccc(Cl)c(-c2cc(Cl)ccc2Cl)c1 [PCB52],0.00,0.00,0.00,0.00,0.00
